In article PMC12914105:
These are yes or no findings as the source states them, for the method shown. In cells and extracts the contact can be indirect. These calls come from enrichment with a bait or labelling near it, and not all partners need be listed.

Chains of the proteins cited; added tags and fusions are not shown. Residues count along the entry.
UniProt P14625, residues 22-803: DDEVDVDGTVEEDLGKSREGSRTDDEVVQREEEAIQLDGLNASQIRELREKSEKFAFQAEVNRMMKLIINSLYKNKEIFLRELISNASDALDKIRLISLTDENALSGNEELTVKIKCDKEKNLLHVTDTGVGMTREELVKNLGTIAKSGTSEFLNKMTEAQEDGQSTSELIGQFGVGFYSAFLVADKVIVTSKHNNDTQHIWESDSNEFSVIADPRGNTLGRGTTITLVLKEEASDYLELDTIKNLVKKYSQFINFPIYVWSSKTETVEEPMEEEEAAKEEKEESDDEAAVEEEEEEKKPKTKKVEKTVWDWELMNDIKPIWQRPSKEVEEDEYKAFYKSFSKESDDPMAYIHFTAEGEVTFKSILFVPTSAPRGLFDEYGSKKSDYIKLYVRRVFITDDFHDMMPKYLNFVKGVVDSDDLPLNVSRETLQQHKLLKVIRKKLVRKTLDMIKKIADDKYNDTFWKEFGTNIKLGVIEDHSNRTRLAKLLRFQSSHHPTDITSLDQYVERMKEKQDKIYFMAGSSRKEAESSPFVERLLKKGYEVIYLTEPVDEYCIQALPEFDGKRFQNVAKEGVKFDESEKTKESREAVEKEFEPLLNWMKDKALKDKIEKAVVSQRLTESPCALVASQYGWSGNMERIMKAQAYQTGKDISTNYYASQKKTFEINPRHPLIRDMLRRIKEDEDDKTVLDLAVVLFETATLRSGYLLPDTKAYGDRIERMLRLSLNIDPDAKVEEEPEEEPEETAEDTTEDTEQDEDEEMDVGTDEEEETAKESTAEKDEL
UniProt P08134: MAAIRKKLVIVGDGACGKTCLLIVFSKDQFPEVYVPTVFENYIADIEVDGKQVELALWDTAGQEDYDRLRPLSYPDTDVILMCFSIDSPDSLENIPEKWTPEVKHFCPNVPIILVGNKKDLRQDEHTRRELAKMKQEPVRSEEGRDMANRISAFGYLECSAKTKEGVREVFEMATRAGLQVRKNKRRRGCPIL

Target: heat shock protein 90 beta family member 1 (HSP90B1) (human (endogenous in LN229)) (UniProt P14625)
Assay: affinity purification with mass spectrometry; HSP90B1 immunoprecipitated from cell lysate, silver staining of the sample, LC-MS of the bound proteins; cell line not stated

binding: binds
Substance: ras homolog family member C (RhoC) (from UniProt P08134 1-193)
